Source: PubChem BioAssay (NCATS)
The shares of active, inactive and inconclusive entries below differ from those in the screen. Potencies of inconclusive entries are doubtful fits and often do not repeat. Active and inactive are the calls of the source. The call rests on the fitted dose curve.
On the % scale 0 is the no-effect control and ±100 the full control effect; potency means the concentration at half of the fitted maximal effect.

Amino acid sequences for entries named in this document (tags omitted). A change or cut given only in a name is not applied to a line headed by its entry.
UniProt P16066: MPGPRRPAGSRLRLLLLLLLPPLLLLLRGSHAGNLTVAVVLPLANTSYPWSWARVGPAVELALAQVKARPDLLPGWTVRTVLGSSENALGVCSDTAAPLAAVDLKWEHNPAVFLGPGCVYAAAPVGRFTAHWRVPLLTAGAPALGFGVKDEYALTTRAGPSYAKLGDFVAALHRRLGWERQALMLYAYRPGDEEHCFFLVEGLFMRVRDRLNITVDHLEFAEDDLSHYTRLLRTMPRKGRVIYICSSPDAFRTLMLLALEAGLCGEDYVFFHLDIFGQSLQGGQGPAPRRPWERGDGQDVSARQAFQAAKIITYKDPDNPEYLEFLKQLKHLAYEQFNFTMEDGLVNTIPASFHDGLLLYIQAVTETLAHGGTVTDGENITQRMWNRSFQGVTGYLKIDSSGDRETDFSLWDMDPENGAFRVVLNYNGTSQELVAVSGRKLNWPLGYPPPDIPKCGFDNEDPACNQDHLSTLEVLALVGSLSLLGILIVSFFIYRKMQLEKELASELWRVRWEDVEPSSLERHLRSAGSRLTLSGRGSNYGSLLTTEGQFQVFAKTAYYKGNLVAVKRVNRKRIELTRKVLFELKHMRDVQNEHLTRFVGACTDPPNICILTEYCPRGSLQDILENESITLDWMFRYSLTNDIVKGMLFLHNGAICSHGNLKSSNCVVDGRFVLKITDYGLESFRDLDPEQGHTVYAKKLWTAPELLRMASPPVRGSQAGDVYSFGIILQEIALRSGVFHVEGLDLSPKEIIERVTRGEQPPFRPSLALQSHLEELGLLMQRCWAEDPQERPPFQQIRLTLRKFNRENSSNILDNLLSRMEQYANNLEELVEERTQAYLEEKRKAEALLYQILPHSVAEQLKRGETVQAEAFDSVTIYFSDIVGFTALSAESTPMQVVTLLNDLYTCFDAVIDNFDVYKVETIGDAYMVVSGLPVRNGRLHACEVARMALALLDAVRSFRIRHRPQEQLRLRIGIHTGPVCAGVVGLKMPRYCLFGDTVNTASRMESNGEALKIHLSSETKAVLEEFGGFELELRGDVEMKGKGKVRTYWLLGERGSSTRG

System: not listed separately
Test: Natriuretic polypeptide receptor (hNpr1) antagonism - Pilot counterscreen GloSensor control cell line (AID 1347045)
Conditions: HEK293 cGMP GloSensor cells, SNP-stimulated luminescence, 20 min; series mostly up to 38.3 µM; activity change, negative = inhibition: at the top concentration
Procedure, shortened: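 This counterscreen uses HEK293 cells expressing the GIP/pGS-40F cGMP biosensor. Compound-treated cells are challenged with 50 uM sodium nitroprusside, and the luciferase signal is compared before and after stimulation.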
With c1cnc2c(c1)ccc1cccnc12 the Potency was inconclusive: 5.21 µM [inhibitor, single point].
For O=C1C(SCCO)=C(SCCO)C(=O)c2ccccc21, the Potency was active: 2.07 µM.
In the case of Cc1cc(O)c2c(c1)C(=O)c1cc(O)cc(O)c1C2=O, the Potency is reported as inconclusive: 26.1 µM [inhibitor, single point].
With S=C(Nc1ccccc1)Nc1nccs1 the Potency was active: 13.1 µM.
With CC(C)(C)c1ccc(S(=O)(=O)/C=C/C#N)cc1 the Potency was active: 6.56 µM.
In the case of NCCCS(=O)(=O)O, the Potency is reported as inconclusive: 5.85 µM [inhibitor, single point].
With O=C(Nc1ccc([N+](=O)[O-])cc1Cl)c1cc(Cl)ccc1O the Potency was active: 0.464 µM.
For CN1CCc2cc(NC(=O)Nc3cccnc3)ccc21, the Potency was inconclusive: 2.07 µM [inhibitor, single point].
For COc1ccc(/C=C/C(=O)Nc2ccccc2C(=O)O)cc1OC, the Potency was active: 1.85 µM.
In the case of N#C/C(=C\c1ccc(O)c(O)c1)C(=O)Nc1ccccc1, the Potency is reported as inconclusive: 16.5 µM [inhibitor, partial curve].
In the case of Oc1cc(O)cc(/C=C/c2ccc(O)c(O)c2)c1, the Potency is reported as active: 11.7 µM.
For CC(=O)Oc1ccccc1C(=O)O, the “activity change, negative = inhibition” value was inactive: -3.21%.
In the case of c1ccc(C(NCCNC(c2ccccc2)c2ccccc2)c2ccccc2)cc1, the Potency is reported as active: 13.1 µM.
With CN=c1nc(-c2ccccc2)n(-c2ccccc2)s1 the Potency was inconclusive: 23.3 µM [inhibitor, single point].
With Cc1cccc(C#Cc2ccccc2)n1 the Potency was inconclusive: 10.4 µM [inhibitor, partial curve].
In the case of Nc1c(S(=O)(=O)O)cc(Nc2ccc(Nc3nc(Cl)nc(Nc4ccc(S(=O)(=O)O)cc4)n3)c(S(=O)(=O)O)c2)c2c1C(=O)c1ccccc1C2=O, the Potency is reported as active: 9.27 µM.
With COc1ccc(NC(=O)/C=C/c2ccc(Cl)cc2)cc1 the Potency was inconclusive: 26.1 µM [inhibitor, single point].
In the case of CC(C)Cc1ccc([C@H](C)C(=O)O)cc1, the “activity change, negative = inhibition” value is reported as inactive: 5.87%.
In the case of Cn1cc(C2=C(c3ccc(Cl)cc3Cl)C(=O)NC2=O)c2ccccc21, the Potency is reported as inconclusive: 14.7 µM [inhibitor, single point].
With O=[N+]([O-])c1ccc2c(c1)S(=O)(=O)C=C2 the Potency was active: 9.27 µM.
With NC(=O)C(=O)O the Potency was inconclusive: 0.585 µM [inhibitor, single point].
For CCN(CC)C(=S)SSC(=S)N(CC)CC, the Potency was active: 3.29 µM.
For Cc1ccc(O)c(N=Nc2ccccc2)n1, the Potency was active: 7.36 µM.
With O=C(/C=C/c1ccc(O)cc1)c1ccc(O)cc1O the Potency was inconclusive: 26.1 µM [inhibitor, single point].
For OC[C@H]1O[C@@H](n2cnc3c(NC4CCCCC4)ncnc32)[C@H](O)[C@@H]1O, the Potency was inconclusive: 18.5 µM [inhibitor, partial curve, poor fit].
In the case of Cn1ccc2cc3c(cc21)CCN3C(=O)Nc1cccnc1, the Potency is reported as inconclusive: 26.1 µM [inhibitor, single point].
With CC(=O)/C=C1\C(=O)N(C)c2ccccc21 the Potency was active: 9.27 µM.
In the case of COC1(C2=NCCN2)COc2ccccc2O1 (configuration not stated), the “activity change, negative = inhibition” value is reported as inactive: 2.75%.
For O=Nc1c(-c2c(O)[nH]c3cc(Br)ccc23)[nH]c2ccccc12, the Potency was inconclusive: 14.7 µM [inhibitor, single point].
In the case of O=C1c2c(O)ccc(O)c2C(=O)c2c(NCCNCCO)ccc(NCCNCCO)c21, the Potency is reported as active: 10.4 µM.
With O=C1NC(=O)/C(=C/c2ccc3c(c2)OC(F)(F)O3)S1 the Potency was inconclusive: 14.7 µM [inhibitor, partial curve].
For CN(C)c1ccc(/C=C2\C(=O)Nc3ccccc32)cc1, the Potency was active: 4.14 µM.
For Nc1ccc(-c2ccc3ccccc3n2)cc1, the Potency was active: 14.7 µM.
In the case of CN1C2CCC1CC(OC(=O)C(O)c1ccccc1)C2 (configuration not stated), the “activity change, negative = inhibition” value is reported as inactive: -0.532%.
For CCOC(=O)N1CCN(/[N+]([O-])=N/Oc2ccc([N+](=O)[O-])cc2[N+](=O)[O-])CC1, the Potency was active: 5.21 µM.
With Cc1ccc(S(=O)(=O)/C=C/C#N)cc1 the Potency was active: 9.27 µM.
With O=C1/C(=C/c2ccsc2)CC/C1=C\c1cccs1 the Potency was active: 1.47 µM.
In the case of O=C1c2ccccc2C(=O)c2c(NCCc3ccc(O)cc3)ccc(NCCc3ccc(O)cc3)c21, the Potency is reported as active: 11.7 µM.
In the case of NNc1nncc2ccccc12, the Potency is reported as inconclusive: 7.36 µM [inhibitor, partial curve].

Biological target: Atrial natriuretic peptide receptor 1 (Homo sapiens) (UniProt P16066)
Test: Natriuretic polypeptide receptor (hNpr1) antagonism - Pilot screen (AID 1347049);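 further: agonist-evoked cGMP luminescence read 20 min after hNppA addition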
Conditions: hNpr1 cells, antagonist mode cGMP read-out; series mostly up to 57.5 µM; activity change, negative = inhibition: at the top concentration
Procedure, shortened: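 Readout is cGMP-driven firefly luciferase luminescence in HEK293 cells carrying hNpr1 and a PDE5-domain GloSensor, read before and 20 min after 0.1 nM hNppA stimulation. Cells had 2% substrate reagent for 2 h and test compound for 30 min.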
In the case of O=C1C(SCCO)=C(SCCO)C(=O)c2ccccc21, the Potency is reported as active: 5.36 µM.
For Cc1cc(O)c2c(c1)C(=O)c1cc(O)cc(O)c1C2=O, the Potency was active: 23.9 µM.
For S=C(Nc1ccccc1)Nc1nccs1, the Potency was inconclusive: 21.3 µM [inhibitor, single point].
In the case of CC(C)(C)c1ccc(S(=O)(=O)/C=C/C#N)cc1, the Potency is reported as active: 12 µM.
For O=C(Nc1ccc([N+](=O)[O-])cc1Cl)c1cc(Cl)ccc1O, the Potency was active: 0.953 µM.
With COc1ccc(/C=C/C(=O)Nc2ccccc2C(=O)O)cc1OC the Potency was active: 9.53 µM.
With N#C/C(=C\c1ccc(O)c(O)c1)C(=O)Nc1ccccc1 the Potency was inconclusive: 37.9 µM [inhibitor, single point].
In the case of Oc1cc(O)cc(/C=C/c2ccc(O)c(O)c2)c1, the Potency is reported as inconclusive: 21.3 µM [inhibitor, single point].
With c1ccc(C(NCCNC(c2ccccc2)c2ccccc2)c2ccccc2)cc1 the Potency was inconclusive: 26.9 µM [inhibitor, single point].
For CN=c1nc(-c2ccccc2)n(-c2ccccc2)s1, the Potency was inconclusive: 30.1 µM [inhibitor, single point].
In the case of Cc1cccc(C#Cc2ccccc2)n1, the Potency is reported as inconclusive: 37.9 µM [inhibitor, single point].
In the case of Nc1c(S(=O)(=O)O)cc(Nc2ccc(Nc3nc(Cl)nc(Nc4ccc(S(=O)(=O)O)cc4)n3)c(S(=O)(=O)O)c2)c2c1C(=O)c1ccccc1C2=O, the Potency is reported as inconclusive: 26.9 µM [inhibitor, single point].
In the case of COc1ccc(NC(=O)/C=C/c2ccc(Cl)cc2)cc1, the Potency is reported as inconclusive: 30.1 µM [inhibitor, single point].
In the case of O=[N+]([O-])c1ccc2c(c1)S(=O)(=O)C=C2, the Potency is reported as active: 10.7 µM.
In the case of CCN(CC)C(=S)SSC(=S)N(CC)CC, the Potency is reported as active: 2.39 µM.
For Cc1ccc(O)c(N=Nc2ccccc2)n1, the Potency was active: 16.9 µM.
For O=C(/C=C/c1ccc(O)cc1)c1ccc(O)cc1O, the Potency was active: 30.1 µM.
With Cn1ccc2cc3c(cc21)CCN3C(=O)Nc1cccnc1 the Potency was inconclusive: 33.8 µM [inhibitor, single point].
For CC(=O)/C=C1\C(=O)N(C)c2ccccc21, the Potency was active: 16.9 µM.
With COC1(C2=NCCN2)COc2ccccc2O1 (configuration not stated) the “activity change, negative = inhibition” value was inactive: 9.48%.
For O=Nc1c(-c2c(O)[nH]c3cc(Br)ccc23)[nH]c2ccccc12, the Potency was inconclusive: 21.3 µM [inhibitor, single point].
For O=C1c2c(O)ccc(O)c2C(=O)c2c(NCCNCCO)ccc(NCCNCCO)c21, the Potency was inconclusive: 23.9 µM [inhibitor, single point].
In the case of O=C1NC(=O)/C(=C/c2ccc3c(c2)OC(F)(F)O3)S1, the Potency is reported as inconclusive: 23.9 µM [inhibitor, single point].
With CN(C)c1ccc(/C=C2\C(=O)Nc3ccccc32)cc1 the Potency was active: 1.2 µM.
With Nc1ccc(-c2ccc3ccccc3n2)cc1 the Potency was inconclusive: 23.9 µM [inhibitor, single point].
With CCOC(=O)N1CCN(/[N+]([O-])=N/Oc2ccc([N+](=O)[O-])cc2[N+](=O)[O-])CC1 the Potency was inconclusive: 15.1 µM [inhibitor, partial curve].
In the case of O=C1/C(=C/c2ccsc2)CC/C1=C\c1cccs1, the Potency is reported as active: 6.01 µM.
In the case of O=C1c2ccccc2C(=O)c2c(NCCc3ccc(O)cc3)ccc(NCCc3ccc(O)cc3)c21, the Potency is reported as active: 12 µM.
